Assay results: paper PMC13572447
These are yes or no findings as the source states them, for the method shown.

Chains of the proteins cited; added tags and fusions are not shown. Lines headed by an entry give the natural chain unless they say otherwise; changes in a name come on top.
UniProt P45974: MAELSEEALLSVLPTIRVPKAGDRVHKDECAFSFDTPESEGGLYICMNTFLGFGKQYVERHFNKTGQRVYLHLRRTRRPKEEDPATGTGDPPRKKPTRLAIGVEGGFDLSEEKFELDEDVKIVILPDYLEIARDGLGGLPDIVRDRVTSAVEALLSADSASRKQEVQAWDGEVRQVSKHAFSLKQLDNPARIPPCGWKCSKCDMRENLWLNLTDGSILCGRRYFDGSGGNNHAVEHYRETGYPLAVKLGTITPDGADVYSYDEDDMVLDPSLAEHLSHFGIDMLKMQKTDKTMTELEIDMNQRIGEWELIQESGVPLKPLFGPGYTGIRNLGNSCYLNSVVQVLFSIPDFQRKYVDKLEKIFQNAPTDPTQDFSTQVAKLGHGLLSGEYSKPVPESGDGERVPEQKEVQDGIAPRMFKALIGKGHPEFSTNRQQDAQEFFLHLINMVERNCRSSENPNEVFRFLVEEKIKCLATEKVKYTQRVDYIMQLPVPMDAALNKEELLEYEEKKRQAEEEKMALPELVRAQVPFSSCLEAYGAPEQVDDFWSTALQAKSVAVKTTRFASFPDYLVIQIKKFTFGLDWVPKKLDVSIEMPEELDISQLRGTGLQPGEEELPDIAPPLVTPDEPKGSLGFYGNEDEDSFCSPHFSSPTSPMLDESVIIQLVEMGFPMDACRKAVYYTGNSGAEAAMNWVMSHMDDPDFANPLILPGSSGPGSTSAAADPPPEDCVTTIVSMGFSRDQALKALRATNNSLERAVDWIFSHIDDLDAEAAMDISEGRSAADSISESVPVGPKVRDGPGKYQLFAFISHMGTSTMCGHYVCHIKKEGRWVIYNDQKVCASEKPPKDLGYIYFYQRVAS

Molecular target: truncated USP5 variant lacking the ZnF-UBP domain (human) (UniProt P45974)
Assay: ITC; SDE2 construct or Ub titrated into USP5 construct; ITC200, 298 K; 50 mM HEPES, 100 mM NaCl, 1 mM TCEP, pH 7.5; duplicate experiments; both purified

binding: no binding
B1: SDE2 ubiquitin-like domain, SDE2UBL(1-77) (domain or fragment, UniProt Q6IQ49-1 1-77)
chain: MAEAAALVWIRGPGFGCKAVRCASGRCTVRDFIHRHCQDQNVPVENFFVKCNGALINTSDTVQHGAVYSLEPRLCGG
